Measured data: PubChem BioAssay AID1259405 (NCATS, 2018)

Aim: 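Knock-downs that lift recombinant protein yield in hamster ovary cells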 (primary screen)
Cell system: Chinese hamster CHO-K1 ovary cells with stable secreted eGFP expression
Reagents: single siRNA against mouse genes, 0.8 pmol siRNA per well (2 µl of 400 nM stock)
Time to read-out: 3 days
Detection: 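Percent of the per-plate non-targeting control median for intracellular GFP per well by laser scanning cytometry and for cell viability by ATP luminescence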
Direction: GFP, % of control: higher = more GFP per well, higher productivity; viability (ATP), % of control: higher = more viable cells (more ATP)
Active means: 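a knock-down is called active if GFP reaches 120% or more of non-targeting control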
In all, the deposit lists about 50,000 reagents; this is a random part of them. About 4,000 of them (8%) count as active. 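Mouse siRNA library applied to hamster cells; one well for each siRNA.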 A number with no mark means an inactive call. The numbers tell different reagents against one gene apart.

gene,reagent no.,"GFP, % of control","viability (ATP), % of control"
Or1m1,1,56.2,46.3
Or1m1,2,79.2,26.5
Or1m1,3,57.1,58.8
Itgal,1,115,96.7
Itgal,2,83.3,87.9
Tmem269,1,125 (active),87.7
Tmem269,2,75.2,49.2
Tmem269,3,79.3,78.1
Rgs7,1,107,105
Rgs7,2,118,63.5
Rgs7,3,85,69.8
Bloc1s4,1,69.7,101
Bloc1s4,2,71.2,97.2
Bloc1s4,3,74.9,116
Efhd1,1,76.4,53.4
Efhd1,2,84.4,62.4
Efhd1,3,132 (active),92

4 successive records from above:
gene,reagent no.,"GFP, % of control","viability (ATP), % of control"
Bloc1s4,3,74.9,116
Efhd1,1,76.4,53.4
Efhd1,2,84.4,62.4
Efhd1,3,132 (active),92

Next entries follow.
gene,reagent no.,"GFP, % of control","viability (ATP), % of control"
Gimap9,1,84.3,77.9
Gimap9,2,92.8,69.6
Gimap9,3,59.2,86.8
Mtf1,1,60.6,64.1
Mtf1,2,65,45.9
Mtf1,3,76.9,120
Nek4,1,45.6,37
Aoah,1,123 (active),142
Aoah,2,65.5,76.4
Tmc3,1,71.8,93.6
Tmc3,2,50.4,64.4
Tmc3,3,79.9,92.1
Tpi1,1,81.9,73.7
Tpi1,2,58.2,73.6
Tpi1,3,63.4,55.5
9930014A18Rik,1,62.3,62.5
9930014A18Rik,2,84.4,78.4
9930014A18Rik,3,58,54.6
